Earlier results on one substance are cited in patent US6051557A, “Methods of enhancing functioning of the upper gastrointestinal tract” (1149336 Ontario Inc., priority 1998, dated 2000).

The conditions of the series: healthy adult humans, cited from earlier work.

With “His-Ala-Asp-Gly-Ser-Phe-Ser-Asp-Glu-Met-Asn-Thr-Ile-Leu-Asp-Asn-Leu-Ala-Ala-Arg-Asp-Phe-Ile-Asn-Trp-Leu-Ile-Gln-Thr-Lys-Ile-Thr-Asp [GLP-2]”, under “after nutrient ingestion”, the “amount normally circulating in the plasma, after nutrient ingestion” value is reported as around 225 pmol/mL. Also, the “amount normally circulating in the plasma, resting state” value (resting state) is around 151 pmol/mL.
